No constants are given. Whether binding was seen depends on the method and setting. Binding seen in cells or lysates may run through a third protein. Some binding calls cover weakened binding; strength is not graded here. Tags and fused reporters may be left off the sequences shown.
T1: podocin, short isoform (Pod^short), FLAG-tagged (human) (UniProt Q9NP85)
T1 sequence: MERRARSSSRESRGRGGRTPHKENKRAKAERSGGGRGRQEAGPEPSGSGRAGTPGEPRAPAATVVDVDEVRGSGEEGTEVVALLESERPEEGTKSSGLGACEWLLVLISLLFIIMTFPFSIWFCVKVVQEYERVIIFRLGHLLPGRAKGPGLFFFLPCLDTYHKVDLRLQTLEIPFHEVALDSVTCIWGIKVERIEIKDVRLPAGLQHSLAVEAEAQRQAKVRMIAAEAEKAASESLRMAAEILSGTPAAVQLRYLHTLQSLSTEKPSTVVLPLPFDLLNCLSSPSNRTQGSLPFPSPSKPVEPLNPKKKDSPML

T2: podocin, canonical isoform (Pod^canon), FLAG-tagged (human) (UniProt Q9NP85)
T2 sequence: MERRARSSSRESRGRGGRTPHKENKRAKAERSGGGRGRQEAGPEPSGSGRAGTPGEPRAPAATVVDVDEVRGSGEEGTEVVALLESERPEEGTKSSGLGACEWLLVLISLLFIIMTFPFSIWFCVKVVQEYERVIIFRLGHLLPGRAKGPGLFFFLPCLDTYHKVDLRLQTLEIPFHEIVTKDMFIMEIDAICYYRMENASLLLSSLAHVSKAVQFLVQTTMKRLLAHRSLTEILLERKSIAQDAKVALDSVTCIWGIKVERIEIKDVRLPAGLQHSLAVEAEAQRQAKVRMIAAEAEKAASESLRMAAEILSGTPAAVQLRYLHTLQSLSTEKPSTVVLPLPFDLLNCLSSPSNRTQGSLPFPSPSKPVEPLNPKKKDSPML

B1: TRPC6, V5-tagged (protein, UniProt Q9Y210 1-931)
chain: MSQSPAFGPRRGSSPRGAAGAAARRNESQDYLLMDSELGEDGCPQAPLPCYGYYPCFRGSDNRLAHRRQTVLREKGRRLANRGPAYMFSDRSTSLSIEEERFLDAAEYGNIPVVRKMLEECHSLNVNCVDYMGQNALQLAVANEHLEITELLLKKENLSRVGDALLLAISKGYVRIVEAILSHPAFAEGKRLATSPSQSELQQDDFYAYDEDGTRFSHDVTPIILAAHCQEYEIVHTLLRKGARIERPHDYFCKCNDCNQKQKHDSFSHSRSRINAYKGLASPAYLSLSSEDPVMTALELSNELAVLANIEKEFKNDYKKLSMQCKDFVVGLLDLCRNTEEVEAILNGDVETLQSGDHGRPNLSRLKLAIKYEVKKFVAHPNCQQQLLSIWYENLSGLRQQTMAVKFLVVLAVAIGLPFLALIYWFAPCSKMGKIMRGPFMKFVAHAASFTIFLGLLVMNAADRFEGTKLLPNETSTDNAKQLFRMKTSCFSWMEMLIISWVIGMIWAECKEIWTQGPKEYLFELWNMLDFGMLAIFAASFIARFMAFWHASKAQSIIDANDTLKDLTKVTLGDNVKYYNLARIKWDPSDPQIISEGLYAIAVVLSFSRIAYILPANESFGPLQISLGRTVKDIFKFMVIFIMVFVAFMIGMFNLYSYYIGAKQNEAFTTVEESFKTLFWAIFGLSEVKSVVINYNHKFIENIGYVLYGVYNVTMVIVLLNMLIAMINSSFQEIEDDADVEWKFARAKLWFSYFEEGRTLPVPFNLVPSPKSLFYLLLKLKKWISELFQGHKKGFQEDAEMNKINEEKKLGILGSHEDLSKLSLDKKQVGHNKQPSIRSSEDFHLNSFNNPPRQYQKIMKRLIKRYVLQAQIDKESDEVNEGELKEIKQDISSLRYELLEEKSQNTEDLAELIRELGEKLSMEPNQEETNR
B2: nephrin, V5-tagged (protein, UniProt O60500 23-1241)
chain: QLAIPASVPRGFWALPENLTVVEGASVELRCGVSTPGSAVQWAKDGLLLGPDPRIPGFPRYRLEGDPARGEFHLHIEACDLSDDAEYECQVGRSEMGPELVSPRVILSILVPPKLLLLTPEAGTMVTWVAGQEYVVNCVSGDAKPAPDITILLSGQTISDISANVNEGSQQKLFTVEATARVTPRSSDNRQLLVCEASSPALEAPIKASFTVNVLFPPGPPVIEWPGLDEGHVRAGQSLELPCVARGGNPLATLQWLKNGQPVSTAWGTEHTQAVARSVLVMTVRPEDHGAQLSCEAHNSVSAGTQEHGITLQVTFPPSAIIILGSASQTENKNVTLSCVSKSSRPRVLLRWWLGWRQLLPMEETVMDGLHGGHISMSNLTFLARREDNGLTLTCEAFSEAFTKETFKKSLILNVKYPAQKLWIEGPPEGQKLRAGTRVRLVCLAIGGNPEPSLMWYKDSRTVTESRLPQESRRVHLGSVEKSGSTFSRELVLVTGPSDNQAKFTCKAGQLSASTQLAVQFPPTNVTILANASALRPGDALNLTCVSVSSNPPVNLSWDKEGERLEGVAAPPRRAPFKGSAAARSVLLQVSSRDHGQRVTCRAHSAELRETVSSFYRLNVLYRPEFLGEQVLVVTAVEQGEALLPVSVSANPAPEAFNWTFRGYRLSPAGGPRHRILSSGALHLWNVTRADDGLYQLHCQNSEGTAEARLRLDVHYAPTIRALQDPTEVNVGGSVDIVCTVDANPILPGMFNWERLGEDEEDQSLDDMEKISRGPTGRLRIHHAKLAQAGAYQCIVDNGVAPPARRLLRLVVRFAPQVEHPTPLTKVAAAGDSTSSATLHCRARGVPNIVFTWTKNGVPLDLQDPRYTEHTYHQGGVHSSLLTIANVSAAQDYALFTCTATNALGSDQTNIQLVSISRPDPPSGLKVVSLTPHSVGLEWKPGFDGGLPQRFCIRYEALGTPGFHYVDVVPPQATTFTLTGLQPSTRYRVWLLASNALGDSGLADKGTQLPITTPGLHQPSGEPEDQLPTEPPSGPSGLPLLPVLFALGGLLLLSNASCVGGVLWQRRLRRLAEGISEKTEAGSEEDRVRNEYEESQWTGERDTQSSTVSTTEAEPYYRSLRDFSPQLPPTQEEVSYSRGFTGEDEDMAFPGHLYDEVERTYPPSGAWGPLYDEVQMGPWDLHWPEDTYQDPRGIYDQVAGDLDTLEPDSLPFELRGHLV
B3: NEPH1, V5-tagged (protein, UniProt Q96J84 17-757)
chain: QGTQTRFSQEPADQTVVAGQRAVLPCVLLNYSGIVQWTKDGLALGMGQGLKAWPRYRVVGSADAGQYNLEITDAELSDDASYECQATEAALRSRRAKLTVLIPPEDTRIDGGPVILLQAGTPHNLTCRAFNAKPAATIIWFRDGTQQEGAVASTELLKDGKRETTVSQLLINPTDLDIGRVFTCRSMNEAIPSGKETSIELDVHHPPTVTLSIEPQTVQEGERVVFTCQATANPEILGYRWAKGGFLIEDAHESRYETNVDYSFFTEPVSCEVHNKVGSTNVSTLVNVHFAPRIVVDPKPTTTDIGSDVTLTCVWVGNPPLTLTWTKKDSNMVLSNSNQLLLKSVTQADAGTYTCRAIVPRIGVAEREVPLYVNGPPIISSEAVQYAVRGDGGKVECFIGSTPPPDRIAWAWKENFLEVGTLERYTVERTNSGSGVLSTLTINNVMEADFQTHYNCTAWNSFGPGTAIIQLEEREVLPVGIIAGATIGASILLIFFFIALVFFLYRRRKGSRKDVTLRKLDIKVETVNREPLTMHSDREDDTASVSTATRVMKAIYSSFKDDVDLKQDLRCDTIDTREEYEMKDPTNGYYNVRAHEDRPSSRAVLYADYRAPGPARFDGRPSSRLSHSSGYAQLNTYSRGPASDYGPEPTPPGPAAPAGTDTTSQLSYENYEKFNSHPFPGAAGYPTYRLGYPQAPPSGLERTPYEAYDPIGKYATATRFSYTSQHSDYGQRFQQRMQTHV

These binders were tested against T1, podocin, short isoform (Pod^short), FLAG-tagged (human) (assay: co-IP; FLAG- and V5-tagged proteins expressed in HEK293T cells; lysis 24 h after transfection in IP buffer (1% Triton X-100, 20 mM Tris pH 7.5, 25 mM NaCl, 50 mM NaF, 15 mM Na4P2O7, 1 mM EDTA); M2 anti-FLAG agarose beads, 1 h at 4°C, three washes; Western blot with V5 antibody).

binding, binds:
B1, B2, B3

Each binder was assayed against T2, podocin, canonical isoform (Pod^canon), FLAG-tagged (human) in the same assay as above.

binding, binds:
B1, B2, B3
